Among the data in paper PMC9414295 are binding values, retold here.

Protein sequences, listed by entry. Tags and fused reporters are not part of them.
UniProt P03129: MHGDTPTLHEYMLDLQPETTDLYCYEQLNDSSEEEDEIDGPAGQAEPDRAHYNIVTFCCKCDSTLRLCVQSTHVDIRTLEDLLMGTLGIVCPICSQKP

In the assay the target is FLAG-HA-tagged HPV-16 E7 (human papillomavirus type 16) (UniProt P03129). Kind of assay: co-IP.

Results are given in words; binding and its absence hold for the method and conditions named. Binding seen in cells or lysates may run through a third protein. Some entries that bind do so weakly or less than the wild type.

B1: retinoblastoma tumor suppressor protein pRB (protein, UniProt P06400 1-928)
chain: MPPKTPRKTAATAAAAAAEPPAPPPPPPPEEDPEQDSGPEDLPLVRLEFEETEEPDFTALCQKLKIPDHVRERAWLTWEKVSSVDGVLGGYIQKKKELWGICIFIAAVDLDEMSFTFTELQKNIEISVHKFFNLLKEIDTSTKVDNAMSRLLKKYDVLFALFSKLERTCELIYLTQPSSSISTEINSALVLKVSWITFLLAKGEVLQMEDDLVISFQLMLCVLDYFIKLSPPMLLKEPYKTAVIPINGSPRTPRRGQNRSARIAKQLENDTRIIEVLCKEHECNIDEVKNVYFKNFIPFMNSLGLVTSNGLPEVENLSKRYEEIYLKNKDLDARLFLDHDKTLQTDSIDSFETQRTPRKSNLDEEVNVIPPHTPVRTVMNTIQQLMMILNSASDQPSENLISYFNNCTVNPKESILKRVKDIGYIFKEKFAKAVGQGCVEIGSQRYKLGVRLYYRVMESMLKSEEERLSIQNFSKLLNDNIFHMSLLACALEVVMATYSRSTSQNLDSGTDLSFPWILNVLNLKAFDFYKVIESFIKAEGNLTREMIKHLERCEHRIMESLAWLSDSPLFDLIKQSKDREGPTDHLESACPLNLPLQNNHTAADMYLSPVRSPKKKGSTTRVNSTANAETQATSAFQTQKPLKSTSLSLFYKKVYRLAYLRLNTLCERLLSEHPELEHIIWTLFQHTLQNEYELMRDRHLDQIMMCSMYGICKVKNIDLKFKIIVTAYKDLPHAVQETFKRVLIKEEEYDSIIVFYNSVFMQRLKTNILQYASTRPPTLSPIPHIPRSPYKFPSSPLRIPGGNIYISPLKSPYKISEGLPTPTKMTPRSRILVSIGESFGTSEKFQKINQMVCNSDRVLKRSAEGSNPPKPLKKLRFDIEGSDEADGSKHLPGESKFQQKLAEMTSTRTRMQKQKMNDSMDTSNKEEK
Turning to B1, the binding entry is listed as “binds”.
